From paper PMC6114968
Results are given in words; binding and its absence hold for the method and conditions named. Binding seen in cells or lysates may run through a third protein. Some entries that bind do so weakly or less than the wild type.

Protein sequences, listed by entry. Tags and fused reporters are not part of them. Residues count along the entry.
UniProt O14543: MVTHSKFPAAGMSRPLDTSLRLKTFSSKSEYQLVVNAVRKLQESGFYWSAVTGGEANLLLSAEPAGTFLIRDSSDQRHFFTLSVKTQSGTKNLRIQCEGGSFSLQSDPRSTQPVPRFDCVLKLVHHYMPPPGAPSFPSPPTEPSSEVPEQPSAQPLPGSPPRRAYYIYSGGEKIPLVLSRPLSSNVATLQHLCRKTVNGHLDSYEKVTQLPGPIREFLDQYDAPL
UniProt O00220, residues 24-468: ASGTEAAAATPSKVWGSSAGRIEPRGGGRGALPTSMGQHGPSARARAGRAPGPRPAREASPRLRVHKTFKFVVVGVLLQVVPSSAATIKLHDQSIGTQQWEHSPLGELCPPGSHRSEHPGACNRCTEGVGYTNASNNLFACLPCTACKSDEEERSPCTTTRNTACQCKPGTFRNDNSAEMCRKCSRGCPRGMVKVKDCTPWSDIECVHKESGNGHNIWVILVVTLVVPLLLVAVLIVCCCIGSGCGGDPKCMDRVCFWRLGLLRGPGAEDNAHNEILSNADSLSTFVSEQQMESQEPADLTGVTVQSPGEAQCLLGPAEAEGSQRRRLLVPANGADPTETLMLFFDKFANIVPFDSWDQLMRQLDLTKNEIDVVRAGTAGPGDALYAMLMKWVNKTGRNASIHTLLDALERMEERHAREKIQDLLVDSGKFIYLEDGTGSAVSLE

Biological target: suppressor of cytokine signaling 3 (SOCS3) (human (endogenous in ACHN and 786-O)) (UniProt O14543)
Assay: co-IP; ACHN and 786-O cells treated with 1000 IU/mL IFN-α for different time periods, lysed; immunoprecipitation with anti-SOCS3 antibody on Protein G magnetic beads; Western blot with anti-SOCS3 and anti-DR4 antibodies

binding: binds
Substance: TRAIL-R1/DR4 (from UniProt O00220 24-468) (receptor)
